Experimental data published in publication PMC6925144, “A prospective compound screening contest identified broader inhibitors for Sirtuin 1” (Scientific Reports, 2019).
In all, about 3,200 compounds were measured (“TSA(with NAD+) / Primary screening (TSA) / delta Tm (K)”: median about -0.04, highest 2% from about 0.37 on). The list shows a part of the results.

Protein sequences, listed by entry. Tags and fused reporters are not part of them. Residues count along the entry.
UniProt Q96EB6, 2-747 limits assumed: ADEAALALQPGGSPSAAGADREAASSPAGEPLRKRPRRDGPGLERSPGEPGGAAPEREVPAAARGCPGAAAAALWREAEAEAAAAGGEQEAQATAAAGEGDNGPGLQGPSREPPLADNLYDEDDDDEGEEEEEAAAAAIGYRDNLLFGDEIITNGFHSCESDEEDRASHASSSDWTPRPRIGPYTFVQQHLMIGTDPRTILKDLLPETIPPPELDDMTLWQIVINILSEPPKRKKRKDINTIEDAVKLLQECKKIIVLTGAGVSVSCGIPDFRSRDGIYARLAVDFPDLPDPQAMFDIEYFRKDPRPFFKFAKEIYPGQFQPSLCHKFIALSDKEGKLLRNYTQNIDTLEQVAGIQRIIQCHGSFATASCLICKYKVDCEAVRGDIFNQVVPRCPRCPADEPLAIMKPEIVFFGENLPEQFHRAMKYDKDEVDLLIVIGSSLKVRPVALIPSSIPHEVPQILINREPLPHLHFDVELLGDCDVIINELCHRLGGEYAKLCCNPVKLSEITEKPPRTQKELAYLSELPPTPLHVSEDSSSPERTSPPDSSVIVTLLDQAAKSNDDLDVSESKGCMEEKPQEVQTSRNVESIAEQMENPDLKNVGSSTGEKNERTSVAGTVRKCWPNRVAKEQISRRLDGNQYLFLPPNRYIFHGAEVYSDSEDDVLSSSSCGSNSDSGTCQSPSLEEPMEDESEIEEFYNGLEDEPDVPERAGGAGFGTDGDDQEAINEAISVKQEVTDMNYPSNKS

Molecular target: NAD-dependent deacetylase Sirtuin 1 (human, UniProt Q96EB6)
Experiment: primary screen, delta tm
Set-up: single well (n = 1, as 'the same TSA')
Conditions: 10 µM

SMILES	TSA(with NAD+) / Primary screening (TSA) / delta Tm (K)
COCC(=O)N1CCN(Cc2c(O)ccc3ccc(OC)cc23)CC1	-0.16
CC(C)(C)C(=O)N1CCc2cnccc21	-0.15
CCCNC(=O)c1ccc2[nH]c3c(c2c1)CC(C)CC3 (stereo not drawn)	-0.03
CC(Oc1cccc(/C=C2/CCc3cc(O)ccc3C2=O)c1)C(=O)O (stereo not drawn)	-0.18
CC(=O)NC12CC3CC(C1)CC(C(=O)OCC(=O)N(CCc1ccccc1)CCc1ccccc1)(C3)C2	-0.01
O=C(OCc1nnc(C(=O)NCc2ccc(F)cc2)s1)c1cc2c(s1)CCCC2	-0.14
CC(C)c1nnc(CSc2nccn2Cc2ccccn2)o1	-0.16
CC(N)CC(N)=O (stereo not drawn)	-0.13
CN1CC(Nc2c(C#N)cnc3ccc(Cl)cc23)CCC1=O (stereo not drawn)	0.02
COc1ccc(-c2ccc(/C=C3\NC(=S)NC3=O)o2)c([N+](=O)[O-])c1	-0.02
CCOC(=O)N1CCN(Cc2ccc(OCc3cccnc3)cc2)CC1	-0.03
CC(=O)Nc1ccc2c(COC(=O)C34CC5CC(C3)CC(c3ccccc3)(C5)C4)cc(=O)oc2c1	0.03
CC1CCc2c(sc3ncn(CC(=O)c4ccc5c(c4)CCC5)c(=O)c23)C1 (stereo not drawn)	0.16
Cc1ccc(C2C(C(=O)c3sc(C)nc3C)=C(O)C(=O)N2CCCN2CCOCC2)cc1 (stereo not drawn)	-0.23
Sc1ccc(Cl)cn1	0.09
CC(C)(C)OC(=O)NCC1CCCN1c1ccc(Br)cc1[N+](=O)[O-] (stereo not drawn)	0.16
CN(c1ccc(OC(=O)c2cc(Cl)nc3ccccc23)cc1)S(=O)(=O)c1ccccc1	-0.12
NC(=O)c1c(NC(=O)CN2CCCC(CN3CCN(c4ccccn4)CC3)C2)sc2c1CCCC2 (stereo not drawn)	-0.06
C=CCn1c(N)nnc1SCC1CC(C(=O)OC)=C(C)O1 (stereo not drawn)	0.02
O=C(CCc1ccccc1)NCCNc1cnccn1	-0.04
CCN1C(=O)c2oc3ccccc3c(=O)c2C1c1ccc(Cl)cc1 (stereo not drawn)	-0.01
Cc1cc(C)c(C(N)=O)c(N2CCC3CCCCC3C2)n1 (stereo not drawn)	-0.03
CC(C)CC(NC(=O)C#Cc1ccccc1)C(=O)Nc1cc[nH]n1 (stereo not drawn)	-0.14
O=C(CSc1nnc(-c2sc3ccccc3c2Cl)o1)N1CCN(C(=O)c2ccco2)CC1	-0.13

SMILES	TSA(with NAD+) / Primary screening (TSA) / delta Tm (K)
O=C(c1ccco1)N1CCC(Nc2nc(-c3ccccc3)nc3ccccc23)CC1	0.07
O=C(COC(=O)/C=C/c1cn(-c2ccccc2)nc1-c1cc2ccccc2oc1=O)NC1CCS(=O)(=O)C1 (stereo not drawn)	-0.22
O=c1cc(CSc2nnc(-c3ccccc3)o2)c2cc3c(cc2o1)CCC3	-0.01
COc1ccc(/C=C2/Oc3cc(O)ccc3C2=O)c(OC)c1	0.12
O=C(c1ccccc1)C1CCN(c2ncnc3c2oc2ccccc23)CC1	-0.03
NC(=O)NCc1ccc(C(=O)Nc2nc(-c3c[nH]c(C(N)=O)c3)cs2)cc1	0.11
Cc1nc(C)c(C(=O)C2=C(O)C(=O)N(CCCN3CCOCC3)C2c2ccc(Cl)cc2)s1 (stereo not drawn)	0.05
NC(=O)c1oc2ccccc2c1NC(=O)Cc1ccc(Cl)c(Cl)c1	0.12
CCCOc1ccc(C2C(C(=O)c3ccc(C)o3)=C(O)C(=O)N2CCCN2CCOCC2)cc1 (stereo not drawn)	0.06
O=C(CCOc1ccccc1)Nc1ccc(N2CCN(Cc3ccccc3)CC2)cc1	0.09
O=C(NC1CCCCCC1)c1ccc2c(c1)CC(c1ccccc1)OC2=O (stereo not drawn)	-0.01
CC1CCC(C(N)=O)CN1c1ncnc2ccsc12 (stereo not drawn)	0.05
CC1(C)C(=O)Nc2ccccc2N1C(=O)CNc1cccc2c1CCCC2	-0.01
CC1(c2cnccn2)NC(=O)NC1=O (stereo not drawn)	-0.19
CC(=O)CN1C(=O)c2ccccc2C1=O	0.09
Cc1nc(-c2ccc([N+](=O)[O-])cc2)cs1	-0.03
O=C(CC1OC(=O)c2ccccc21)Nc1ccc2c(c1)Cc1ccccc1-2 (stereo not drawn)	0.05
N#Cc1ncn(-c2ncnc3ccsc23)n1	-0.03
Cc1ccc(-c2csc3ncnc(N4CCN(C(=O)Cc5nc(C)cs5)CC4)c23)cc1	0.03
FC(F)(F)C1CCCN(c2nsc3ccccc23)C1 (stereo not drawn)	-0.23
CCC1(c2ccc(F)cc2)NC(=O)N(CC(=O)Nc2ccc(C(N)=O)cc2)C1=O (stereo not drawn)	-0.18
O=C1NCCCc2[nH]c3ccc(Cl)cc3c21	-0.13
Cc1[nH]c2ccc(C(=O)NC3CCC(C(N)=O)CC3)cc2c1C (stereo not drawn)	-0.12
Sc1nc(C2CC2)n(-c2ccccc2)n1	-0.13

SMILES	TSA(with NAD+) / Primary screening (TSA) / delta Tm (K)
CC(C)C(N)CN (stereo not drawn)	0.06
COc1ccc(-c2nn(-c3ccccc3)cc2C=C2C(=O)NC(=S)NC2=O)cc1OC	-0.11
CCOC(=O)C(C#N)C1(C#N)CCCC1 (stereo not drawn)	-0.26
COc1cccc2cc(C(=O)C3=C(O)C(=O)N(CCCN4CCOCC4)C3c3ccc(F)cc3)oc12 (stereo not drawn)	0.02
CCN(Cc1cccs1)C(=O)CSc1ncnc2c1cnn2C	-0.11
NC(=O)c1c(NC(=O)C2CCN(c3ncc(C(F)(F)F)cc3Cl)CC2)sc2c1CCC2	0.16
Cc1nc(-c2ccc(CCNC(=O)c3ccc(NC(N)=O)cc3)s2)cs1	0.08
O=C(CNC(=O)c1cccs1)NCC(=O)NC1CC1	-0.08
CCOc1ccc(C(=O)N[C@H](C(=O)Nc2nc[nH]c2C(N)=O)C(C)C)cc1	-0.01
COc1cccc(C(=O)C2=C(O)C(=O)N(CCCN3CCOCC3)C2c2ccccn2)c1 (stereo not drawn)	-0.11
CCOCCCOC(=O)c1ccc2[nH]c(C(F)F)nc2c1	-0.16
CC(NC(=O)CCn1ccc2ccccc21)C(=O)NC1CCCC1 (stereo not drawn)	-0.03
CCc1ccccc1N1CC(C(=O)Nc2cccc(S(=O)(=O)Nc3ccc(OC)cc3)c2)CC1=O (stereo not drawn)	0.09
Cc1cnc(C(=O)OCC(=O)N(c2ccccc2)C(C)C)cn1	-0.19
Cc1cc(C)nc(NNC(=O)c2cc(-c3ccco3)nc3c(C(N)=O)ncn23)n1	0.06
COc1cccc(NC(=O)C(Oc2ccc(C(N)=O)cc2)c2ccccc2)c1 (stereo not drawn)	-0.01
CCn1c(C(=O)Nc2cccc(CN3C(=O)CNC3=O)c2)cc2ccccc21	-0.02
CN(c1cccc(Cl)c1)S(=O)(=O)c1cccc(C(=O)Oc2ccc3c4c(c(=O)oc3c2)CCC4)c1	0.09
Cn1c(-c2ccccc2)c(C(=O)CCl)c2ccccc21	-0.13
NC(=O)C1CCCN(c2ncnc3sc4c(c23)CCCC4)C1 (stereo not drawn)	-0.15
COc1ccc2nc3ccccc3nc2c1N	-0.13
CN(C)c1noc(C2CC(=O)N(c3ccc(Cl)c(F)c3)C2)n1 (stereo not drawn)	-0.09
Cc1nc2ccccc2nc1SCc1cc(=O)n2ccsc2n1	-0.21
Cc1ccc(NC(=O)COC(=O)c2ccc(-n3nnc4ccccc43)c([N+](=O)[O-])c2)cc1C	0.35

Not a retest: three of the compounds above.
SMILES	TSA(with NAD+) / Primary screening (TSA) / delta Tm (K)
COc1cccc(NC(=O)C(Oc2ccc(C(N)=O)cc2)c2ccccc2)c1 (stereo not drawn)	-0.01
CCn1c(C(=O)Nc2cccc(CN3C(=O)CNC3=O)c2)cc2ccccc21	-0.02
CN(c1cccc(Cl)c1)S(=O)(=O)c1cccc(C(=O)Oc2ccc3c4c(c(=O)oc3c2)CCC4)c1	0.09

Additional results follow:

SMILES	TSA(with NAD+) / Primary screening (TSA) / delta Tm (K)
Clc1ccc(C(SCc2ncc(-c3ccccc3)o2)c2ccccc2)cc1 (stereo not drawn)	-0.01
CCCOc1ccc(C(=O)C2=C(O)C(=O)N(CCCN3CCOCC3)C2c2ccccc2F)cc1 (stereo not drawn)	-0.22
CC(=O)N1N=C(c2ccc(NS(C)(=O)=O)cc2)CC1c1ccc(F)c(Cl)c1 (stereo not drawn)	-0.16
CCN(Cc1ccccc1)C(=O)CSc1nncn1-c1ccccc1	0.01
Cc1ccc(C23CC4CC(CC(C(=O)OC(C)C(=O)Nc5ccc(S(N)(=O)=O)cc5)(C4)C2)C3)cc1C (stereo not drawn)	0.43
COc1ncnc2c1CN(Cc1c[nH]nc1-c1ccc(F)cc1)CC2	-0.18
Cn1c(N)c(N2CCNCC2)c(=O)n(C)c1=O	-0.11
O=C(O)C1CC(=O)N(c2ccc(S(=O)(=O)Nc3c(F)cccc3F)cc2)C1 (stereo not drawn)	-0.02
NCCC1CC1	0.15
CN1CCc2cc(NC(=O)COc3ccc(N(C)S(=O)(=O)c4cccs4)cc3)ccc21	-0.11
NC(=O)c1ccc(CSc2nc(CC(=O)O)cs2)cc1	-0.09
C=CCn1c(SCc2nc(C)c(-c3ccc(Cl)cc3)o2)nnc1-c1ccco1	-0.03
Cn1cc(C(N)=O)cc1C(=O)OC1CCc2ccc(F)cc21 (stereo not drawn)	-0.04
Cc1nc(CN2CCN(Cc3c(-c4ccccc4)nc4sccn34)CC2)cs1	-0.01
Cc1ccc(C)n1-c1sc2c(c1C#N)CCC(C)C2 (stereo not drawn)	-0.28
C/C(CC12CC3CC(CC(C3)C1)C2)=N/NC1=NS(=O)(=O)c2ccccc21	0.05
C=CCOc1ccc(C(=O)C2=C(O)C(=O)N(CCCN3CCOCC3)C2c2ccccc2F)cc1 (stereo not drawn)	0.07
COc1ccc(N(C)S(=O)(=O)c2cccc(C(=O)Nc3ccc4c(C)cc(=O)oc4c3)c2)cc1	-0.09
COc1ccc(Nc2ccc3nnnn3n2)cc1OCC1CCCO1 (stereo not drawn)	-0.06
Cc1ccc(-c2nc(CC(=O)NNC(=O)c3cccs3)cs2)c(C)c1	-0.01
CCC1CCc2[nH]c3ccc(C)cc3c2C1 (stereo not drawn)	-0.01
